PubChem BioAssay AID488837 (National Center for Advancing Translational Sciences (NCATS), 2010)
The whole screen tested about 330,000 compounds, of which about 20 (0.006%) were called active. The inconclusive results got no clear call from the source; some entries with a clear call stand among them for comparison. Calls come from the whole dose curve; as a rule, active = well fitted inhibition curve with a large enough effect; inconclusive = small, poorly fitted or top-dose-only effect, or effect the other way; inactive = flat fitted curve, though single readings scatter. Potencies beside an inconclusive call are fits to weak or partial responses and may not hold up.

The chains behind the UniProt entries cited, without tags or fusion partners. Where a name states a change or a piece, a line headed by the entry shows the natural chain unless it says otherwise.
UniProt O00167: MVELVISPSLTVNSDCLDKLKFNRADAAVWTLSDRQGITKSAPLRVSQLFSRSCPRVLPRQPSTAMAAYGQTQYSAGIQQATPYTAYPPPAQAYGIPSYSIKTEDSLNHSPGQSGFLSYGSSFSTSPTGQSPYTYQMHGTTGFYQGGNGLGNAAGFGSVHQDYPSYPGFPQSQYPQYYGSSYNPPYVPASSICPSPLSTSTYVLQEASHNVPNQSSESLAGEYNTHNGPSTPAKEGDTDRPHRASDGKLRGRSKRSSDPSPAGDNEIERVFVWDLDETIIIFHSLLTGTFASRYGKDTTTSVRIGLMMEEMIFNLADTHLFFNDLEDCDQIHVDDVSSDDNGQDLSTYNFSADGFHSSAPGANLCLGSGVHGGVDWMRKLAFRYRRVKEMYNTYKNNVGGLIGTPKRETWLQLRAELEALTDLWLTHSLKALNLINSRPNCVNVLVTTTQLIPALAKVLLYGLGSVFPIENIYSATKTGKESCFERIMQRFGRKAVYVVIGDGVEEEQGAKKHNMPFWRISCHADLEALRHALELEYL

Target: Protein phosphatase EYA2 (Homo sapiens) (UniProt O00167)
Experiment: qHTS Assay for Inhibitors of the Phosphatase Activity of Eya2
Settings: recombinant Eya2, OMFP fluorescence dephosphorylation (OMFP is methylfluorescein phosphate); activity, negative = inhibition: at 76.9 µM (top of the series) unless noted
Outline: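 Eya2 protein (added as 0.2 uM solution) was preincubated with compound for 10 min at ambient temperature in 50 mM HEPES pH 7.5, 50 mM NaCl, 5 uM MgCl2, 0.05% BSA, 1 mM DTT. OMFP (added at 50 uM) then reacted 10 min; fluorescence read at 485/525 nm.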
% is set by controls: 0 for no effect and ±100 for the full control effect; potency is the fitted concentration of half-maximal effect.

SMILES | Potency | activity, negative = inhibition
Cc1noc(C)c1COC(=O)CCc1nc2ccccc2s1 | inactive | –
Clc1cccc(-c2ccc(-c3nc4ccccn4c3NCc3ccccc3)cc2)c1 | inconclusive: 63.1 µM [inhibitor, single point] | –
CCc1ccccc1NC(=O)Cn1nc(C)n2cccc2c1=O | inconclusive: 25.1 µM [inhibitor, single point] | –
O=C(Nc1nc(-c2ccc(Cl)s2)cs1)c1ccco1 | inconclusive: 25.1 µM [inhibitor, partial curve] | –
CN(C)Cc1ccc(CNC(=O)c2ccc(Cl)c(S(=O)(=O)NC3CC3)c2)cc1 | inactive | –
Cc1cc(O)c(-c2cc(O)c(C)cc2O)cc1O | inactive | –
O=C1c2ccccc2-c2nnc(-c3ccc(O)cc3)cc21 | inconclusive: 100 µM [inhibitor, single point] | –
CCCc1noc2c1/C(=N\O)CCC2 | inconclusive: 158 µM [activator, partial curve] | –
CCCCCCn1c(=O)[nH]c2nc3cc(N)ccc3nc2c1=O | inconclusive: 31.6 µM [activator, partial curve] | –
O=C(N/N=C/C=C/c1ccccc1)c1cc(C2CC2)[nH]n1 | inconclusive: 200 µM [inhibitor, single point] | –
CCOC(=O)NCc1ccc2[nH]c(C)cc2c1 | inconclusive: 22.4 µM [inhibitor, single point] | –
COc1cc(NC(=S)NC2CC(C)(C)NC(C)(C)C2)c(OC)cc1Cl | inconclusive: 100 µM [inhibitor, single point] | –
O=Cc1c(N2CCC3(CC2)OCCO3)nc2ccccn2c1=O | inconclusive: 224 µM [inhibitor, partial curve, poor fit] | –
Cc1ccc2c(c1)C(=O)N1[C@H]3c4cc(Cl)ccc4OC[C@@H]3[C@H](c3ccccc3)[C@]1(C)C(=O)N2 | inconclusive: 14.1 µM [inhibitor, single point] | –
O=C(c1c(F)cccc1F)N(C1CCCCC1)C1CCCCC1 | inconclusive: 22.4 µM [inhibitor, single point] | –
CCc1cc(OCCN(C)C)ccc1Cl | inactive | –
CCNc1ccc(Br)cc(C(=O)/C=C/c2c(Cl)cccc2Cl)c1=O | inactive | –
CC(C)(C)c1ccc(C(=O)NC(=S)Nn2cnnc2)cc1 | inactive | –
COc1cc2c(cc1OC)C(C(=O)NCc1ccco1)C(c1cccs1)N(C)C2=O (configuration not stated) | inactive | –
Cc1cc(C)cc(OCCNC(=O)c2cc(S(=O)(=O)N3CCOCC3)ccc2F)c1 | inconclusive: 316 µM [inhibitor, partial curve] | –
CCOc1ccc(C(C)NC(=O)Nc2ccc(F)cc2F)cc1 (configuration not stated) | inactive | –
CCOC(=O)c1c(C)oc2c1c(C(c1cccnc1)N1CCCCC1)c(O)c1ccccc12 (configuration not stated) | inactive | –
O=C(CSc1ccc(-c2ccco2)nn1)Nc1ccccc1F | inactive | –
CCOC(=O)c1cnc2ccc(OC)cc2c1Nc1ccc(N2CCN(C)CC2)cc1 | inconclusive: 89.1 µM [inhibitor, single point] | –

SMILES | Potency | activity, negative = inhibition
O=S(=O)(Nc1ccc(Cc2ccncc2)cc1)c1ccc(Br)s1 | inconclusive: 178 µM [inhibitor, partial curve] | –
Cc1ccccc1OCCC(=O)Nc1ccc(S(=O)(=O)N(C)C2CCN(C)CC2)cc1 | inactive | –
CCOc1ccc(NC(=O)CN(C)S(=O)(=O)c2cnc[nH]2)cc1 | inconclusive: 25.1 µM [inhibitor, single point] | –
CCC(C)(CC(=O)O)CC(=O)Nc1cc(C(F)(F)F)cc(C(F)(F)F)c1 (configuration not stated) | inconclusive: 25.1 µM [inhibitor, single point] | –
NN/C(=C\[N+](=O)[O-])Nc1ccccc1 | inactive | –
O=C(Nc1cccc2ncccc12)c1ccc([N+](=O)[O-])o1 | inactive | –
CCCCOC(=O)CSc1nc2ccccc2o1 | inconclusive: 100 µM [inhibitor, single point] | –
O=C(CN(C(=O)c1ccccc1Cl)C1CCCCC1)Nc1ccc(Cl)c([N+](=O)[O-])c1 | inconclusive: 251 µM [inhibitor, single point] | –
O=C(O)Cn1c(SCCOc2ccc(Cl)cc2)nc2ccccc21 | inconclusive: 100 µM [inhibitor, single point] | –
COc1ccccc1NC(=O)c1ccc(-c2ccccc2[N+](=O)[O-])o1 | inconclusive: 89.1 µM [inhibitor, single point] | –
O=c1[nH]c2ccccc2cc1CN(CC1CCCO1)S(=O)(=O)c1ccccc1 (configuration not stated) | inconclusive: 17.8 µM [inhibitor, single point] | –
Cn1nnc(NCc2cc(Br)ccc2OCc2ccccc2F)n1 | inconclusive: 89.1 µM [inhibitor, single point] | –
CCS(=O)(=O)c1ccc(-c2cccc(NC(=O)COc3ccccc3)c2)nn1 | inconclusive: 79.4 µM [inhibitor, single point] | –
O=C(O)Cc1sc(NC2CCCCC2)nc1-c1ccc(Cl)cc1 | inactive | –
COc1cc(/C=N/Nc2ccc([N+](=O)[O-])cn2)cc(OC)c1O | inconclusive: 100 µM [inhibitor, single point] | –
CN(CC(=O)Nc1ccccc1C(F)(F)F)C(=O)COc1cccnc1[N+](=O)[O-] | inconclusive: 22.4 µM [inhibitor, partial curve] | –
CCN(Cc1ccccc1)c1ccc(N=Nc2nn(C)c(C)c2[N+](=O)[O-])cc1 | inactive | –
COc1ccc(/C=C/C(=O)NCCSCc2ccco2)cc1OC | inconclusive: 158 µM [inhibitor, partial curve, poor fit] | –
COc1ccc(CCNC(=O)[C@H](CC(C)C)NC(=O)N2CCn3c2nc2ccccc23)cc1OC | inconclusive: 79.4 µM [inhibitor, partial curve, poor fit] | –
O=C(NCS(=O)(=O)c1ccccc1)c1ccccc1 | inactive | –
COc1ccc(C(=O)N/N=C/c2ccc3cccc(OCc4ccccc4)c3n2)cc1 | inconclusive: 79.4 µM [inhibitor, single point] | –
CC(=O)Oc1c(/C=C(\C#N)C(N)=O)[nH]c2ccccc12 | – | inconclusive: 49.7% [activator]
COc1ccc(C(=O)c2oc3ccc(OC)cc3c2N)cc1 | inactive | –
CCCCN(C(=O)c1ccc(-c2ccc(Cl)cc2)o1)c1c(N)n(CCCC)c(=O)[nH]c1=O | – | inconclusive: -42.3% [inhibitor]

Of the compounds above, these contain a CF3 group.
SMILES | Potency | activity, negative = inhibition
CCC(C)(CC(=O)O)CC(=O)Nc1cc(C(F)(F)F)cc(C(F)(F)F)c1 (configuration not stated) | inconclusive: 25.1 µM [inhibitor, single point] | –
CN(CC(=O)Nc1ccccc1C(F)(F)F)C(=O)COc1cccnc1[N+](=O)[O-] | inconclusive: 22.4 µM [inhibitor, partial curve] | –

Next results.

SMILES | Potency | activity, negative = inhibition
CC(=O)c1nnn(-c2cccc([N+](=O)[O-])c2)c1C | inactive | –
COc1ccc(/C=N/NC(=O)c2[nH]c3ccc(C)cc3c2-c2ccccc2)c(C(=O)O)c1OC | inconclusive: 100 µM [inhibitor, single point] | –
O=C(CSc1ncccn1)N/N=C/c1cccc(OC2CSC2)c1 | inconclusive: 100 µM [inhibitor, single point] | –
O=C(Nc1ccccc1C(=O)O)c1ccc2c(c1)C(=O)N(c1cccc([N+](=O)[O-])c1)C2=O | inconclusive: 200 µM [inhibitor, partial curve] | –
C=CCc1ccccc1OCC(=O)O | inconclusive: 447 µM [inhibitor, partial curve] | –
Cc1n[nH]c(C)c1CCCCOc1ccc([N+](=O)[O-])cc1 | inactive | –
CC1(C)CC(=O)N(c2cccc(C(F)(F)F)c2)C(=O)C1 | inconclusive: 100 µM [inhibitor, single point] | –
CCOC(=O)COc1ccccc1C1Nc2ccccc2C(=O)N1c1cccc(Cl)c1 (configuration not stated) | inconclusive: 20 µM [inhibitor, single point] | –
Cc1ccc(C(C(=O)NC2CCCCC2)N(C(=O)Cc2c[nH]c3ccccc23)c2ccccc2)o1 (configuration not stated) | inactive | –
Cn1nc(C(=O)OCC(=O)Nc2sccc2C(N)=O)c2ccccc2c1=O | inconclusive: 100 µM [inhibitor, single point] | –
CCOc1cccc(N(C(=O)CCC(=O)Nc2cc(C)on2)C(C(=O)NC(C)(C)C)c2ccc(OC)cc2)c1 (configuration not stated) | inconclusive: 31.6 µM [inhibitor, partial curve] | –
Cc1ccc(NC2Sc3ccccc3NC2=O)cc1 (configuration not stated) | inactive | –
CN1C(=S)SC(N2OC3C(=O)N(c4ccccc4)C(=O)C3C2c2ccc(Cl)cc2)C1(C)C (configuration not stated) | inactive | –
O=C1OC2(c3ccccc31)c1cc(I)c(O)c(I)c1Oc1c2cc(I)c(O)c1I | inconclusive: 12.6 µM [activator, partial curve] | –
O=C(N/N=C/c1ccccn1)c1sc2ccccc2c1Cl | inactive | –
O=C(NC1CCCC1)C1CCN(C(=O)c2ccc(Cl)cc2Cl)CC1 | – | inconclusive: -32.7% [inhibitor]
Cc1nc(C(=O)NCCO)cc2c1[nH]c1ccccc12 | inconclusive: 141 µM [inhibitor, partial curve, poor fit] | –
CC(C)N(C(=O)Nc1ccc2nsnc2c1)C(C)C | inactive | –
Clc1ccc(-c2cc(COc3ccc4ccccc4c3)no2)cc1 | inconclusive: 25.1 µM [inhibitor, single point] | –
O=S(=O)(Nc1ccccc1)c1ccc(S(=O)(=O)N2CCCC2)cc1 | inconclusive: 22.4 µM [inhibitor, single point] | –
CC1CCC(NC(=O)CCS(=O)(=O)c2ccc3c(c2)NC(=O)C(C)S3)CC1 (configuration not stated) | inconclusive: 100 µM [inhibitor, single point] | –
CC(OC(=O)c1ccco1)C(=O)NCc1ccc2c(c1)OCO2 (configuration not stated) | inconclusive: 25.1 µM [inhibitor, single point] | –
Cc1c(CCO)c(=O)n2c([nH]c3ccccc32)c1C#N | inconclusive: 22.4 µM [inhibitor, partial curve, poor fit] | –
CN1c2ccccc2C(=O)C(=C2SCCCS2)S1(=O)=O | inconclusive: 79.4 µM [inhibitor, single point] | –

Among those listed so far, 2 have a tert-butyl group.
SMILES | Potency | activity, negative = inhibition
CC(C)(C)c1ccc(C(=O)NC(=S)Nn2cnnc2)cc1 | inactive | –
CCOc1cccc(N(C(=O)CCC(=O)Nc2cc(C)on2)C(C(=O)NC(C)(C)C)c2ccc(OC)cc2)c1 (configuration not stated) | inconclusive: 31.6 µM [inhibitor, partial curve] | –
